Laboratory results as given in ChEMBL document CHEMBL2169886 (J Med Chem, 2012).

Experiment: physchem
Details: buffer, pH 7.4

SMILES: N[C@@H]1CCN(c2cnc3nnn(Cc4ccc5ncccc5c4)c3n2)C1
- logD: 0.86
